{"source": "PubChem BioAssay AID1259425 (University of Nebraska Medical Center, 2018)", "aim": "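Seek colon cancer weak points whose silencing resembles KSR1 loss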 (primary screen)", "cells": "HCT116 human colon cancer cells", "reagent": "siRNA pool against human genes, 50 nM siRNA", "measured": "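After 50 nM siRNA pool, branched-DNA assay measures six marker transcripts per well, minus blank, normalised to the geometric mean of two housekeeping transcripts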", "reading the numbers": "BNIP3L mRNA: higher = more BNIP3L transcript after knockdown", "note": "Here is an unselected part of about 14,000 deposited reagents. Further read-outs or replicates are left out here. Not given: the time to read-out."}
{"Gene":"TBC1D25","BNIP3L mRNA, set 1":0.186}
{"Gene":"EVL","BNIP3L mRNA, set 1":0.0822}
{"Gene":"AGPAT2","BNIP3L mRNA, set 1":0.0641}
{"Gene":"SULT1C4","BNIP3L mRNA, set 1":0.151}

In a second layout: 2 of the entries above.
Gene | BNIP3L mRNA, set 1
TBC1D25 | 0.186
EVL | 0.0822

The list goes on.
{"Gene":"CACNA2D3","BNIP3L mRNA, set 1":0.159}
{"Gene":"ACAT1","BNIP3L mRNA, set 1":0.142}
{"Gene":"STARD8","BNIP3L mRNA, set 1":0.137}
{"Gene":"RIOX2","BNIP3L mRNA, set 1":0.0857}
{"Gene":"CSTF3","BNIP3L mRNA, set 1":0.183}
{"Gene":"ZNF496","BNIP3L mRNA, set 1":0.17}
{"Gene":"MPHOSPH10","BNIP3L mRNA, set 1":0.107}
{"Gene":"FOXI1","BNIP3L mRNA, set 1":0.0811}
